Some of the results follow. Most values lie at the level of the controls, where differences are scatter.

By UniProt entry, the sequences of proteins in these tests, tags left out. Where a name states a change or a piece, a line headed by the entry shows the natural chain unless it says otherwise.
UniProt Q6UXN9, whole entry: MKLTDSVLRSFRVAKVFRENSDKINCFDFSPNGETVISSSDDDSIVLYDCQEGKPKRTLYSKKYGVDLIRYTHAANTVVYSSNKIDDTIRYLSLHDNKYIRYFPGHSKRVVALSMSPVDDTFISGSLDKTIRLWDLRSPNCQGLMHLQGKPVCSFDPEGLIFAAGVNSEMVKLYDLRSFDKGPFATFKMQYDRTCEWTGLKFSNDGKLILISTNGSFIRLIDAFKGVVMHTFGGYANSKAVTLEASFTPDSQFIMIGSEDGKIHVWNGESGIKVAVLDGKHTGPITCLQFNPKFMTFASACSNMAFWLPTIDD
UniProt Q6V9R5: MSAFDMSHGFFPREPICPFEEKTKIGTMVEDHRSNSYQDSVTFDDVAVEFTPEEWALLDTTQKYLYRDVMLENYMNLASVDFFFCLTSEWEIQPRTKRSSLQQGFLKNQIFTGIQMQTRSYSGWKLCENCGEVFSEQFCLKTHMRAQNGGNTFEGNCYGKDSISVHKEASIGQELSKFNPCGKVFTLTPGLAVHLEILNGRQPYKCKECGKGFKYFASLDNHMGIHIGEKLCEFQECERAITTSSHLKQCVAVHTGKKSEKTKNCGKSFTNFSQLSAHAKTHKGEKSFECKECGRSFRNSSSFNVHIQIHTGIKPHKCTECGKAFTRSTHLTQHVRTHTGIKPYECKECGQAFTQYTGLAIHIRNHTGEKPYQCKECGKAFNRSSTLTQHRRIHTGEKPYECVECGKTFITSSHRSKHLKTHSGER
UniProt Q7Z5U6: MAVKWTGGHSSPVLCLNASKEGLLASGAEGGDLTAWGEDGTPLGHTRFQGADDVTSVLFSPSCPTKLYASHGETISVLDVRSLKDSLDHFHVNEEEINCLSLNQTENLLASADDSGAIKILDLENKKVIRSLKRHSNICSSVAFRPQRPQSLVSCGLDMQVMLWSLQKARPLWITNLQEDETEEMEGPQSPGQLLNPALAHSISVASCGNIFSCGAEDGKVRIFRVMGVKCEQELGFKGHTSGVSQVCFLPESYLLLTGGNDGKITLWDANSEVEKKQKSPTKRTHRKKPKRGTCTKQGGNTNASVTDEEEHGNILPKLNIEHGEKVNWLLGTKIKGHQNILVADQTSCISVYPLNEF
UniProt Q6ZRS2, whole entry: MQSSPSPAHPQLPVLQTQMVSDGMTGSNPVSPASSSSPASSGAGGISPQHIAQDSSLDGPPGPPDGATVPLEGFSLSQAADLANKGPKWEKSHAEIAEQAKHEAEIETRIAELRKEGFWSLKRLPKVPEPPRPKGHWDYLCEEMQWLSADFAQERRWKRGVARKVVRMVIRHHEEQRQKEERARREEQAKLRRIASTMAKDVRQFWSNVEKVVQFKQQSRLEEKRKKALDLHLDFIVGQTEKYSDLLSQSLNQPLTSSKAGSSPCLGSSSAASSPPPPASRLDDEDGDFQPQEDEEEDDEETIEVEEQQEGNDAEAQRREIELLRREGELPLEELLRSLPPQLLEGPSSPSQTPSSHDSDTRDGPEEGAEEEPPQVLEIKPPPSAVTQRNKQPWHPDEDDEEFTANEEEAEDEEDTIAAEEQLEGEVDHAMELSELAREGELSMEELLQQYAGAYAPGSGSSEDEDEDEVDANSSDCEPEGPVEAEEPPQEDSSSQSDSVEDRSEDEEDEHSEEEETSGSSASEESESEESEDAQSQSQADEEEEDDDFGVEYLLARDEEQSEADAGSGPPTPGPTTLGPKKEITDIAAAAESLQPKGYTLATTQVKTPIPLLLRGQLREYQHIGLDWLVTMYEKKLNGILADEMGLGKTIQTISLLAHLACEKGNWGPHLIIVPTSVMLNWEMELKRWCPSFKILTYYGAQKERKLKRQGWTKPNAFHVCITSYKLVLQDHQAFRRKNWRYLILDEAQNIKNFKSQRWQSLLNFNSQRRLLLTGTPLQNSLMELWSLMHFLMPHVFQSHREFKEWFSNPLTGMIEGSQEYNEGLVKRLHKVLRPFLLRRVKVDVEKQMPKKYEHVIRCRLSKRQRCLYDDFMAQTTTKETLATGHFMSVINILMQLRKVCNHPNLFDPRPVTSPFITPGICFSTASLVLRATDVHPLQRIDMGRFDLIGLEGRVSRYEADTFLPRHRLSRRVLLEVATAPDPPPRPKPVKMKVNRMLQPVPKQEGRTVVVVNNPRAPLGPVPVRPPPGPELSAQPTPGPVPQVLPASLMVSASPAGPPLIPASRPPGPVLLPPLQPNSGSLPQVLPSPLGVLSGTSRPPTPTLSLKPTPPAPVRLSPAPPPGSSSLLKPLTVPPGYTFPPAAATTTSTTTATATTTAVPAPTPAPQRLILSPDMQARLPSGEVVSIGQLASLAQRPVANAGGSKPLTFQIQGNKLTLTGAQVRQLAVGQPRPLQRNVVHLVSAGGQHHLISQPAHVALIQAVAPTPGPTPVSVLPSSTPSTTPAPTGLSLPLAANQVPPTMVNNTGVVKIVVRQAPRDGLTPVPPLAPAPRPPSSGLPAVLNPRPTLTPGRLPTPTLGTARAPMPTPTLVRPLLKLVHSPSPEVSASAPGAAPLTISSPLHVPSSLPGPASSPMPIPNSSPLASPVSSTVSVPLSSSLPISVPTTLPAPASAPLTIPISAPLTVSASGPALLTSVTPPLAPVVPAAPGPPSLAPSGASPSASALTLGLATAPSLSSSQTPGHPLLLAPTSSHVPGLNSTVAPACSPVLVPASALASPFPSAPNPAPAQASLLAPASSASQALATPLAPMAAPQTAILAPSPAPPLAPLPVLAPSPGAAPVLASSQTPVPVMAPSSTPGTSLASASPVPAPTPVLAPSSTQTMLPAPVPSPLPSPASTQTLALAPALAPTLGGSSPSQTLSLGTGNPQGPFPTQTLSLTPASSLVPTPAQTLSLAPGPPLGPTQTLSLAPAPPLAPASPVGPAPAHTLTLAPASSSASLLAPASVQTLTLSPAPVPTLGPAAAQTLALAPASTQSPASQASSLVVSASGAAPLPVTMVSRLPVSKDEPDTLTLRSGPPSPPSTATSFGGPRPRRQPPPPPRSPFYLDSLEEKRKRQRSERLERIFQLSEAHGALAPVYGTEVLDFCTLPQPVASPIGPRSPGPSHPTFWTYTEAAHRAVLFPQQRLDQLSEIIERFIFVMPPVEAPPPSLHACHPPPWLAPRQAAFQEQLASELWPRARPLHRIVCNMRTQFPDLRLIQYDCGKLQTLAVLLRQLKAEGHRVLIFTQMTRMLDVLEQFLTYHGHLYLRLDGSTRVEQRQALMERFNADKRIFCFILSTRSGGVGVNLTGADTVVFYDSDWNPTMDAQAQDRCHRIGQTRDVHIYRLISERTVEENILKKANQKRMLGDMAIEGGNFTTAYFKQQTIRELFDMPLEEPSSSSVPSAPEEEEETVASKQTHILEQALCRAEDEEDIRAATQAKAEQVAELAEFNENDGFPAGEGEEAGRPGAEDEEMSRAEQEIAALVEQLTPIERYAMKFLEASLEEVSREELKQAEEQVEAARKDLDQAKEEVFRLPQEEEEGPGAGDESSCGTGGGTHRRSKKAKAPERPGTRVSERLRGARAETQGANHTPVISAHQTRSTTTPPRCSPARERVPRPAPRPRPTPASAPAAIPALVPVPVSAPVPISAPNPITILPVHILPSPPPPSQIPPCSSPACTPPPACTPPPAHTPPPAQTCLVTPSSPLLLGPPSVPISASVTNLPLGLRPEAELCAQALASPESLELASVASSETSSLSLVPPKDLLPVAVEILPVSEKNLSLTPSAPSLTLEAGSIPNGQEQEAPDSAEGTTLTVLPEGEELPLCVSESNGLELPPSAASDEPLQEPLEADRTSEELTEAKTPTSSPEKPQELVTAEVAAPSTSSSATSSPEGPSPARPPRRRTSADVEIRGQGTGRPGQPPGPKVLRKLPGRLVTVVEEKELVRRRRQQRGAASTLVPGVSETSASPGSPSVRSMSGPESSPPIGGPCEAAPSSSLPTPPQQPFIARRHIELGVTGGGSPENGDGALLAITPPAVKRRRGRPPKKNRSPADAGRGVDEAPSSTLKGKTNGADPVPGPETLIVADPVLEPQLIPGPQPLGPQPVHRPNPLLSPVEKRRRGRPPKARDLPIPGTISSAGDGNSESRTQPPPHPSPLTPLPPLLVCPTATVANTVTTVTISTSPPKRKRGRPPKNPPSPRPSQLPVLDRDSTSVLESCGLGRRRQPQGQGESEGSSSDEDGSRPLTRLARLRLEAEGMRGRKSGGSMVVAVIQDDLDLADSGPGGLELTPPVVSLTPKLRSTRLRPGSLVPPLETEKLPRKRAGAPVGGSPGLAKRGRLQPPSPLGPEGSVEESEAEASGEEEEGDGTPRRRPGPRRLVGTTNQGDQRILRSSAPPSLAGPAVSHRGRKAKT
UniProt Q6ZNG1: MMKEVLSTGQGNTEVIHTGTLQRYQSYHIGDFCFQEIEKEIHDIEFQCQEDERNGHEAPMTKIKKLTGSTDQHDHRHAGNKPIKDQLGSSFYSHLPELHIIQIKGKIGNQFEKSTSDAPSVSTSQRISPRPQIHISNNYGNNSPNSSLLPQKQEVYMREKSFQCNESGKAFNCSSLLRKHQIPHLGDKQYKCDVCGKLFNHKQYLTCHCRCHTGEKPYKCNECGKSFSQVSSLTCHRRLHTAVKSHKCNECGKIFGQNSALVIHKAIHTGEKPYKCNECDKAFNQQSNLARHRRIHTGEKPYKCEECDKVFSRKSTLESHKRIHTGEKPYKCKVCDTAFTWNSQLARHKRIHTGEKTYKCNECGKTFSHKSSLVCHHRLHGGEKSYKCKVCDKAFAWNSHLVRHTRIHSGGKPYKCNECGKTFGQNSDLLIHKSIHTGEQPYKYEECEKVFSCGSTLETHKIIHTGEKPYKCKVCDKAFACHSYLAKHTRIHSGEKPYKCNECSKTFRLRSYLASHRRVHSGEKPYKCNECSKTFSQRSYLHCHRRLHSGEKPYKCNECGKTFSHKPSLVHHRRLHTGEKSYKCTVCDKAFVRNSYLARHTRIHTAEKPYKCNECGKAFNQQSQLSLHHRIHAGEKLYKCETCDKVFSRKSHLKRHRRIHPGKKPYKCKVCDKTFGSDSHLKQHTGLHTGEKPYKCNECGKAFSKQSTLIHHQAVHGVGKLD
UniProt Q7Z4G1, whole entry: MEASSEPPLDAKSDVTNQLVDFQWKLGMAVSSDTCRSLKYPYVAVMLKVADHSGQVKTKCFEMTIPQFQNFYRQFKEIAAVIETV
UniProt Q6ZTW0: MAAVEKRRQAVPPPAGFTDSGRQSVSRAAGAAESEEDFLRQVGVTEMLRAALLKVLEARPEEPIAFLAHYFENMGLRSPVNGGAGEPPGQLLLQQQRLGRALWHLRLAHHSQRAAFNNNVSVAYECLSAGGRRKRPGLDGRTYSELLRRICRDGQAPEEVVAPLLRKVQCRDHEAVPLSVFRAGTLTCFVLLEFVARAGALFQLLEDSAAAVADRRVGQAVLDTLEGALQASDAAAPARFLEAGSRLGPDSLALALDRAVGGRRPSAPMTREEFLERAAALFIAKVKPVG
UniProt Q6UX04: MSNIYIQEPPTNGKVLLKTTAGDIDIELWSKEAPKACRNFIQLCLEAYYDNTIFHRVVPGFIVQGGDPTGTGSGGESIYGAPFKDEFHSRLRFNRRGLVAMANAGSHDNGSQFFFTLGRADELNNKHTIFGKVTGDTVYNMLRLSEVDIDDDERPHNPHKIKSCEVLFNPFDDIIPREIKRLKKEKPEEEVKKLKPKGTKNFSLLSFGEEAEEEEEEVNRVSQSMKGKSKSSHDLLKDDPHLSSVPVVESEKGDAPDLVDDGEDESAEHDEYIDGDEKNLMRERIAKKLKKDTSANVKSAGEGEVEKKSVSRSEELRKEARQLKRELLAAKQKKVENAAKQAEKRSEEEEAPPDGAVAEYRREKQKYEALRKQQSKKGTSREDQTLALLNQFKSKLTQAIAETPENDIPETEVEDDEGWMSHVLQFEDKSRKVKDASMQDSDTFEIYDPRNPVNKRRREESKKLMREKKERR

Compound in the experiment: Cc1nc(Nc2ncc(C(=O)Nc3c(C)cccc3Cl)s2)cc(N2CCN(CCO)CC2)n1 [dasatinib]
In words: log2 fold change of tryptic peptide abundance, ligand vs vehicle (limited proteolysis) (log2 ratio); higher = more trypsin-susceptible (destabilized). As to conditions: ligand concentration: 5 uM; sample: K562 cleared lysate.
For “UniProt Q6UXN9 (peptide sequence: LILISTNGSFIR, peptide start residue: 208)”, the log2 fold change is -0.335.

Consider “ZNF562 (peptide sequence: SSTLTQHR, peptide start residue: 384) (UniProt Q6V9R5)”, for which the log2 fold change amounted to 0.629.

In the case of “WDR53 (peptide sequence: LNIEHGEK, peptide start residue: 319) (UniProt Q7Z5U6)”, the log2 fold change is -0.375.

Consider “SRCAP (peptide sequence: GVDEAPSSTLK, peptide start residue: 2876) (UniProt Q6ZRS2)”, for which the log2 fold change was found to be 0.226.

Turning to “FAM83H (peptide sequence: DSFAQQLHQEAER, peptide start residue: 795) (UniProt Q6ZRV2)”, the log2 fold change stood at 0.453.

For the target “POGZ (peptide sequence: HHLTPHAR, peptide start residue: 1079) (UniProt Q7Z3K3)”, the log2 fold change was -0.436.

Regarding “UniProt Q6ZNG1 (peptide sequence: SFQCNESGK, peptide start residue: 214)”, the log2 fold change was found to be 0.142.

Consider “ZFYVE16 (peptide sequence: VFCGVCCNRK, peptide start residue: 775) (UniProt Q7Z3T8)”, for which the log2 fold change was found to be 0.617.

For the target “COMMD6 (peptide sequence: SLKYPYVAVMLK, peptide start residue: 37) (UniProt Q7Z4G1)”, the log2 fold change was -0.541.

For “UniProt Q6ZTW0 (peptide sequence: DHEAVPLSVFR, peptide start residue: 172)”, the log2 fold change amounted to 0.0384.

For the target “UniProt Q6UX04 (peptide sequence: RSEEEEAPPDGAVAEYR, peptide start residue: 345)”, the log2 fold change stood at 0.294.
